# Reference: PubChem BioAssay AID2685 (National Center for Advancing Translational Sciences (NCATS), 2010)
# This is one part of the list. These are further read-outs of the screen, such as a control signal, another cell line or another target. No call is given for them. Most of these compounds were active or inconclusive in the main read-out, so they are no random draw. The note in brackets gives the kind of curve behind each potency; many fits are weak.
# Assay: qHTS Assay for Lipid Storage Modulators in Drosophila S3 Cells;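 for cell number change: cells counted by Cell Tracker Red CMTPX staining in the red channel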
# Conditions: BODIPY lipid droplet fluorescence, 18-24 h; for cell number change: measured here: cell count max response, cells fed with added oleic acid
# Outline: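 Drosophila S3 cells got compounds at several concentrations plus oleic acid (400 uM solution). Laser-scanning cytometry with 488 nm excitation read lipid droplets at 500-530 nm and cells at 575-640 nm. Percent activity was relative to 20 uM Triacsin C.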
# [1] = measured here: cell number channel AC50, cells fed with added oleic acid
# [2] = measured here: lipid fluorescence (Fed channel) AC50, cells fed with added oleic acid
smiles,measurement,setting,value
COc1ccc([N+](=O)[O-])cc1NC(=S)NC(NC(=O)Cc1ccc(OC)c(OC)c1)C(Cl)(Cl)Cl (stereo unspecified),cell number change,,-15.8%
same,AC50,[1],"5.17 nM [falling, full curve, poor fit]"
CSc1nsc(SCC(=O)Nc2nc3ccc(C)cc3s2)n1,cell number change,,-35.1%
same,AC50,[1],"14600 nM [falling, single point]"
COc1ccc(CNC(=O)c2ccccc2NC(=O)C2=CSCCO2)c(OC)c1,cell number change,,-18.1%
same,AC50,[1],"326 nM [falling, full curve, poor fit]"
same,AC50,[2],"580 nM [rising, single point]"
Cn1nc(-c2ccc(Cl)cc2)c2cc(C(=O)NCCN3CCOCC3)sc21,cell number change,,6.16%
same,AC50,[2],"731 nM [rising, full curve, poor fit]"
Cc1ccc(CN(c2ccc(C(=O)NCC3CCCO3)cc2)S(C)(=O)=O)cc1 (stereo unspecified),cell number change,,105%
same,AC50,[1],"29100 nM [rising, single point]"
same,AC50,[2],"25900 nM [rising, single point]"
COc1ccc(-c2cc(C)no2)cc1S(=O)(=O)NCCCN1CCCCCC1,cell number change,,-13.5%
O=C(Nc1ccc(Br)cn1)c1cccc(C(=O)Nc2ccc(Br)cn2)c1,cell number change,,-38.6%
same,AC50,[1],"5170 nM [falling, full curve]"
same,AC50,[2],"6510 nM [falling, full curve, poor fit]"
CCOc1cccc(NC(=O)CSc2nc(C)c3c(c2C#N)CCCC3)c1,cell number change,,106%
same,AC50,[2],"3660 nM [rising, partial curve]"
CCOc1ccc(NC(=O)Nc2ccc3nccnc3c2)cc1,cell number change,,24.8%
same,AC50,[1],"1460 nM [rising, full curve, poor fit]"
COC(=O)C(N)Cc1ccc(O)cc1 (stereo unspecified),cell number change,,-27.4%
same,AC50,[2],"461 nM [falling, full curve]"
O=C(O)C1C2C=CC(C2)C1C(=O)Nc1ccc2c(c1)OCCO2 (stereo unspecified),cell number change,,-11.6%
COc1ccccc1C(=O)NCC(=O)OCC(=O)Nc1cccc(S(=O)(=O)N2CCCCCC2)c1,cell number change,,-37.2%
same,AC50,[1],"291 nM [falling, full curve]"
same,AC50,[2],"1460 nM [falling, partial curve, poor fit]"
CN1c2ccccc2C(C)(C)C12CC(c1ccc(Cl)c(S(=O)(=O)N3CCCC3)c1)=NO2 (stereo unspecified),cell number change,,-45.8%
same,AC50,[1],"14600 nM [falling, single point]"
same,AC50,[2],"1640 nM [rising, partial curve, poor fit]"
COc1ccc(C2C(C(=O)/C=C/c3ccco3)=C(O)C(=O)N2CCN2CCOCC2)cc1OC (stereo unspecified),cell number change,,-35.7%
same,AC50,[1],"20600 nM [falling, single point]"
same,AC50,[2],"23100 nM [falling, single point]"
COc1ccc(/C=N/NC(=O)C2C3CCCCC32)cc1OC (stereo unspecified),cell number change,,0.645%
same,AC50,[1],"73.1 nM [falling, single point]"
same,AC50,[2],"92 nM [falling, partial curve, poor fit]"
C=CCC1NS(=O)(=O)OC(COC)C1C (stereo unspecified),cell number change,,16.8%
same,AC50,[2],"29100 nM [rising, single point]"
Cc1ccc(CNC(=O)CN(C(=O)C2(C)CC(=O)N=C3C=CC=CN32)c2ccc(F)cc2)cc1 (stereo unspecified),cell number change,,7.21%
same,AC50,[2],"29100 nM [falling, single point]"
COc1ccccc1C(=O)COC(=O)/C(=C/c1ccccc1)NC(C)=O,cell number change,,-25%
same,AC50,[2],"7310 nM [falling, partial curve, poor fit]"
CCO[C@@H]1OC(C(=O)NC2CC2)=C[C@H](C(C)(C)C)[C@H]1CCCO,AC50,[2],"651 nM [falling, single point]"
CC(C)CNC(=O)c1cc(-c2ccc3c(c2)OCO3)on1,cell number change,,27.9%
same,AC50,[2],"10300 nM [rising, partial curve]"
Cc1cc([N+](=O)[O-])nn1CC(=O)N/N=C/c1ccccc1F,AC50,[2],"4610 nM [rising, full curve, poor fit]"
COc1ccc(C(=O)NC(=S)Nc2ccc([N+](=O)[O-])cc2C)cc1OC,cell number change,,-10.4%
same,AC50,[1],"2590 nM [rising, partial curve]"
CCOC(=O)C1CCN(Cc2ccc(F)cc2F)CC1,cell number change,,-63%
same,AC50,[1],"3660 nM [falling, full curve]"
same,AC50,[2],"3660 nM [falling, full curve]"
CCC1=NC(c2ccc(OC)cc2OC)N(O)C1(C)C (stereo unspecified),cell number change,,-61.8%
same,AC50,[1],"580 nM [falling, full curve]"
same,AC50,[2],"920 nM [falling, full curve]"
N#Cc1c(SCC(=O)N2CCOCC2)nsc1SCC(=O)N1CCOCC1,cell number change,,-189%
same,AC50,[1],"20600 nM [falling, partial curve]"
same,AC50,[2],"580 nM [falling, single point]"
O=C(Nc1ccc(N2C(=O)C3CCCCC3C2=O)cc1Cl)c1cccs1 (stereo unspecified),AC50,[1],"731 nM [rising, single point]"
O=C(CN1C(=O)NC2(CCCCC2)C1=O)NNC(=O)C1CC1,cell number change,,1.95%
same,AC50,[2],"580 nM [falling, full curve]"
O=C(OCC(=O)N1CCN(S(=O)(=O)c2ccccc2)CC1)c1ccc([N+](=O)[O-])o1,cell number change,,-6.64%
CCC(C)CCN1CCN=C1Nc1ccccc1 (stereo unspecified),cell number change,,-14.5%
same,AC50,[2],"29100 nM [falling, single point]"
CC(=O)C(C(C)=O)c1c(Cl)c(O)c(O)c2c(C(=O)c3ccccc3)coc12,cell number change,,-19.9%
same,AC50,[2],"29100 nM [falling, single point]"
COc1ccccc1NC(=O)COC(=O)c1c[nH]c2ccccc12,cell number change,,31.9%
same,AC50,[1],"1160 nM [rising, full curve, poor fit]"
CCOc1ccc(C(=O)Nc2ccccc2C(=O)O)cc1,cell number change,,-3.68%
same,AC50,[2],"2590 nM [rising, partial curve]"
COc1ccc(N2C(=O)CC(NCc3cccc(F)c3)C2=O)cc1 (stereo unspecified),cell number change,,-34.1%
same,AC50,[1],"2590 nM [falling, partial curve, poor fit]"
same,AC50,[2],"651 nM [falling, single point]"
COc1ccc(/C=C/C(=O)Nc2c(C)nn(C)c2C)cc1COc1ccc(Br)cc1,cell number change,,-58.9%
same,AC50,[1],"9200 nM [falling, partial curve]"
same,AC50,[2],"10300 nM [falling, partial curve]"
COc1ccc(C2Nc3cccc4cccc(c34)N2)cc1,cell number change,,-14%
same,AC50,[2],"4.61 nM [falling, full curve, poor fit]"

# Some of the entries above in a different format:
smiles	measurement	setting	value
COc1ccc([N+](=O)[O-])cc1NC(=S)NC(NC(=O)Cc1ccc(OC)c(OC)c1)C(Cl)(Cl)Cl (stereo unspecified)	cell number change		-15.8%
same	AC50	[1]	5.17 nM [falling, full curve, poor fit]
Cn1nc(-c2ccc(Cl)cc2)c2cc(C(=O)NCCN3CCOCC3)sc21	cell number change		6.16%
CCOc1cccc(NC(=O)CSc2nc(C)c3c(c2C#N)CCCC3)c1	AC50	[2]	3660 nM [rising, partial curve]
CCOc1ccc(NC(=O)Nc2ccc3nccnc3c2)cc1	AC50	[1]	1460 nM [rising, full curve, poor fit]
COc1ccc(C2C(C(=O)/C=C/c3ccco3)=C(O)C(=O)N2CCN2CCOCC2)cc1OC (stereo unspecified)	cell number change		-35.7%
same	AC50	[2]	23100 nM [falling, single point]
COc1ccc(/C=N/NC(=O)C2C3CCCCC32)cc1OC (stereo unspecified)	cell number change		0.645%
same	AC50	[1]	73.1 nM [falling, single point]
Cc1cc([N+](=O)[O-])nn1CC(=O)N/N=C/c1ccccc1F	AC50	[2]	4610 nM [rising, full curve, poor fit]
COc1ccc(C(=O)NC(=S)Nc2ccc([N+](=O)[O-])cc2C)cc1OC	cell number change		-10.4%
same	AC50	[1]	2590 nM [rising, partial curve]
CCOC(=O)C1CCN(Cc2ccc(F)cc2F)CC1	AC50	[2]	3660 nM [falling, full curve]
N#Cc1c(SCC(=O)N2CCOCC2)nsc1SCC(=O)N1CCOCC1	AC50	[2]	580 nM [falling, single point]
O=C(Nc1ccc(N2C(=O)C3CCCCC3C2=O)cc1Cl)c1cccs1 (stereo unspecified)	AC50	[1]	731 nM [rising, single point]
O=C(OCC(=O)N1CCN(S(=O)(=O)c2ccccc2)CC1)c1ccc([N+](=O)[O-])o1	cell number change		-6.64%
CC(=O)C(C(C)=O)c1c(Cl)c(O)c(O)c2c(C(=O)c3ccccc3)coc12	AC50	[2]	29100 nM [falling, single point]
CCOc1ccc(C(=O)Nc2ccccc2C(=O)O)cc1	cell number change		-3.68%
COc1ccc(/C=C/C(=O)Nc2c(C)nn(C)c2C)cc1COc1ccc(Br)cc1	AC50	[1]	9200 nM [falling, partial curve]
